In article PMC7797639 one finds binding data, which are given here for one substance.

The assay addresses T1, JMJD8 (human (endogenous in A549 and H1299)) (UniProt Q96S16).
T1 sequence: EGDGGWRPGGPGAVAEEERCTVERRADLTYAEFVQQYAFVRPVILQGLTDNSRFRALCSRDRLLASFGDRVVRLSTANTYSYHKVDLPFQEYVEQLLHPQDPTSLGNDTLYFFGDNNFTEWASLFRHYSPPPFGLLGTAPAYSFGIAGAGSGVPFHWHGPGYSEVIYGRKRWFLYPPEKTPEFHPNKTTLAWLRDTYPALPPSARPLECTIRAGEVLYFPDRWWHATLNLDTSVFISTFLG
Kind of assay: co-IP; endogenous proteins; A549 and H1299 lysate (200 ug protein) incubated overnight at 4 °C with 10 ug anti-JMJD8 or anti-IgG, protein A/G agarose beads, washed three times with RIPA buffer, blotted.

These are yes or no findings as the source states them, for the method shown. Binding seen in cells or lysates may run through a third protein. Some binding calls cover weakened binding; strength is not graded here.

As for “Epidermal growth factor receptor (from UniProt P00533 25-1210)”, the binding result is on record as “binds”.
